These are yes or no findings as the source states them, for the method shown. Binding seen in cells or lysates may run through a third protein. Tags and fused reporters may be left off the sequences shown.
Target: T1, FLAG-tagged full-length NLRP1 (human) (UniProt Q9C000)
T1 sequence: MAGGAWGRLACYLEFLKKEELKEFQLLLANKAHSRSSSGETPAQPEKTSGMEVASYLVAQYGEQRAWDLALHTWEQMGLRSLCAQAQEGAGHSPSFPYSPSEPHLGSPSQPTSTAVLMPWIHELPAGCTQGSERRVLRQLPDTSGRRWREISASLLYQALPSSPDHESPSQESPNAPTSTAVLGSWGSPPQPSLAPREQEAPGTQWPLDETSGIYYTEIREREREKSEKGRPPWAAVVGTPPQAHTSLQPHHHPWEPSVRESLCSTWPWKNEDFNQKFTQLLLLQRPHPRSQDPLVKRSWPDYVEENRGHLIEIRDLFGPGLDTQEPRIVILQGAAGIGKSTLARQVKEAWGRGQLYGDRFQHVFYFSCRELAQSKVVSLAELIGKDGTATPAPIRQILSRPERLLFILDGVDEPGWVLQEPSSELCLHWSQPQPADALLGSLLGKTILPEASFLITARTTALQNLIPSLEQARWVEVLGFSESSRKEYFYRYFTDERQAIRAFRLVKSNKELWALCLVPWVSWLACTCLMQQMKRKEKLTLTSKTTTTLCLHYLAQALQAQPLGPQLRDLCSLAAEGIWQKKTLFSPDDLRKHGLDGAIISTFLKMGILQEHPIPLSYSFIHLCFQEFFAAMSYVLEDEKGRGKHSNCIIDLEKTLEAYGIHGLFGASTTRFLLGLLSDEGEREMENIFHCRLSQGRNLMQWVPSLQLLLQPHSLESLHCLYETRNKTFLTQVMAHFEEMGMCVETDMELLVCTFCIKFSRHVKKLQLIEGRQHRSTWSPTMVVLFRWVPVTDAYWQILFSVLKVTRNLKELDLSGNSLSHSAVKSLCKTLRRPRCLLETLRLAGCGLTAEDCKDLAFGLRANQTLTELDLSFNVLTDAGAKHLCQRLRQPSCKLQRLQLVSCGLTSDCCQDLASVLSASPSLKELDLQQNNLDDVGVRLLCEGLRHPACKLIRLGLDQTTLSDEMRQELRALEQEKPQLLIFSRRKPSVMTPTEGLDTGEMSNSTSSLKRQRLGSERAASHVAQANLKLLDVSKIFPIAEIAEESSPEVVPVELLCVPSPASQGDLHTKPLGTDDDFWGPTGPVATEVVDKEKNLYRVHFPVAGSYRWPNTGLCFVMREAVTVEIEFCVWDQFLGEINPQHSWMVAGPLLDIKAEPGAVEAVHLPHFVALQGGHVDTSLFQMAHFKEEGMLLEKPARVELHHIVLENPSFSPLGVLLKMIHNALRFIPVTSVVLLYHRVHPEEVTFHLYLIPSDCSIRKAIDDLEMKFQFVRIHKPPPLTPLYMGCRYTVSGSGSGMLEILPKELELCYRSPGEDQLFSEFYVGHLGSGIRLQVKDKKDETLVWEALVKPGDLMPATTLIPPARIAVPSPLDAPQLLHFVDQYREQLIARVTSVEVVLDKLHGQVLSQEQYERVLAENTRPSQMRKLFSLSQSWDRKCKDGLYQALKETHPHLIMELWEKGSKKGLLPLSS
Test: co-IP

binding: no binding
Substance: DPP9L lacking the hydrolase domain (human) (domain or fragment)

Reference: doi:10.1101/260919
